The source of these data is PubChem BioAssay AID1487 (National Center for Advancing Translational Sciences (NCATS), 2009).

Some of the results follow. Further columns of the screen follow, without active or inactive calls. Most of these compounds were active or inconclusive in the main read-out, so they are no random draw. Words in brackets tell the shape of the fitted curve; partial curves, single points and poor fits give uncertain potencies.

The test in a line: qHTS Assay for Modulators of Lamin A Splicing. The settings on record: HeLa LMNA splicing GFP/RFP minigene ratio, 48 h. A digest of the protocol: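 Read-out is the ratio of GFP to DsRed2 object intensity, acquired by 488 nm laser-scanning cytometry on HeLa lamin A-EGFP minigene reporter cells. Compound incubation 48 hrs at 37 °C in Opti-MEM with 2% FBS; DMSO 0.5% final.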
Where [1] appears, read: measured here: GFP splicing reporter channel.
The mark [2] stands for this setting: measured here: RFP viability control channel.

A word on the AC50: it is the concentration giving half of the maximal activity seen. With `CCOC(=O)N1CCN(C(=O)c2ccccc2N(Cc2ccccc2)S(=O)(=O)c2ccc(OC)cc2)CC1`, the half-maximal activity concentration (AC50) by setting is: under setting [1], 8.91 µM [falling, partial curve, poor fit]; under setting [2], 25.1 µM [falling, single point].
`NC(=S)N/N=C/c1ccccc1OCCSc1ccc(Cl)cc1`: the AC50 is 3.55 µM [falling, partial curve, poor fit] under setting [1] and 0.282 µM [falling, partial curve, poor fit] under setting [2].
For `CCOC(=O)c1scc(-c2ccccc2)c1S(=O)(=O)N1CCN(c2ccccc2OC)CC1`, the half-maximal activity concentration (AC50) under setting [2] was 3.98 µM [rising, full curve].
On to `CC(=O)c1cccc(NS(=O)(=O)c2ccc(N/C=C/C(=O)c3ccc(F)cc3)cc2)c1`, for which the AC50 under setting [2] is 5.01 µM [rising, partial curve].
Turning to `O=C(Nc1sc2c(c1C(=O)O)CCCCC2)c1ccco1`, the AC50 reads like this: under setting [1], 14.1 µM [rising, single point]; under setting [2], 31.6 µM [rising, single point].
Take `CCOC(=O)c1cc(-c2ccccc2)n(CCC(=O)Nc2nc3c(C)cccc3s2)c1C`: the half-maximal activity concentration (AC50) by setting is: under setting [1], 0.02 µM [falling, full curve, poor fit]; under setting [2], 0.02 µM [falling, full curve, poor fit].
With `CCN(CC)CCn1c(=N)n(CCOc2ccccc2)c2ccccc21`, the half-maximal activity concentration (AC50) by setting is: under setting [1], 12.6 µM [rising, partial curve]; under setting [2], 20 µM [rising, single point].
As for `Cc1ccccc1NS(=O)(=O)c1ccc2[nH]c3c(c2c1)CCCCC3`, the AC50 by setting is: under setting [1], 22.4 µM [falling, partial curve, poor fit]; under setting [2], 35.5 µM [falling, partial curve].
In the case of `Cc1ccc(C(=O)Nc2ccc(O)cc2C(=O)O)cc1C`, the concentration at half-maximal activity (AC50) was 11.2 µM [falling, partial curve, poor fit] under setting [1] and 0.158 µM [falling, full curve] under setting [2].
With `CCc1ccc(-n2c(=O)c3c(C)c(C(=O)N(C)C)sc3n(Cc3ccccc3F)c2=O)cc1`, under setting [2], the concentration at half-maximal activity (AC50) is 35.5 µM [falling, single point].
Consider `CCC(=NCc1ccc(Cl)c(Cl)c1)c1nc(-c2ccco2)oc1O`, for which the concentration at half-maximal activity (AC50) runs as follows: under setting [1], 20 µM [rising, single point]; under setting [2], 25.1 µM [rising, single point].
For the molecule `CC(C)OC(=O)CSc1nnc2n1C(C)(C)Cc1ccccc1-2`, the AC50 under setting [2] is 12.6 µM [rising, single point].
As to `CCN1CCN(c2cc(-c3ccccc3)nc3cc(-c4cccc(F)c4)nn23)CC1`, the AC50 under setting [2] is 25.1 µM [rising, single point].
For `Cn1ncc2c(Nc3ccc(-c4ccccc4)cc3)ncnc21`, the concentration at half-maximal activity (AC50) is, setting by setting: under setting [1], 14.1 µM [rising, single point]; under setting [2], 20 µM [rising, single point].
As for `COc1ccc2c(c1)[nH]c1c(=O)n(Cc3ccco3)cnc12`, the AC50 under setting [1] was 14.1 µM [rising, partial curve, poor fit] and the half-maximal activity concentration (AC50) under setting [2] is 12.6 µM [rising, partial curve, poor fit].
Consider `Cc1cnc(=O)[nH]c1SCC(=O)Nc1nc2ccccc2s1`, for which the concentration at half-maximal activity (AC50) under setting [2] was 35.5 µM [rising, single point].
In the case of `CCN(CC)c1ccc(/C=C2/SC(=O)N(C(C)C)C2=O)o1`, the AC50 under setting [1] is 35.5 µM [rising, single point].
Take `COc1cc(NC(=O)c2cccc(C)c2)c(OC)cc1NC(=O)CN1CCCCC1`: the half-maximal activity concentration (AC50) reads like this: under setting [1], 35.5 µM [rising, partial curve, poor fit]; under setting [2], 20 µM [rising, partial curve, poor fit].
`CCc1ccc(C(=O)NC(Cc2c[nH]c3ccccc23)C(=O)OCC(=O)c2ccc(Br)cc2)cc1` (stereo not given): the concentration at half-maximal activity (AC50) is 1.12 µM [falling, full curve, poor fit] under setting [1] and 1.12 µM [falling, full curve, poor fit] under setting [2].
On to `O=C(Nc1ccc2c(c1)CCC2)c1cccc(S(=O)(=O)Nc2ccccc2Cl)c1`, for which, under setting [2], the half-maximal activity concentration (AC50) is 6.31 µM [rising, partial curve].
As for `O=c1[nH][nH]c(C(F)(F)F)c1/C=N/N1CCOCC1`, the AC50 under setting [2] was 0.141 µM [rising, full curve, poor fit].
For the molecule `Cc1ccc(-c2nnc(SCC(=O)NCc3ccccc3)nc2-c2ccc(C)cc2)cc1`, the AC50 under setting [2] is 2.82 µM [rising, single point].
Same read-out and setting: in the case of `Cn1c(=O)n(CCc2ccccc2)c(=O)c2c1nc1n2CCCN1Cc1ccccc1` it was 11.2 µM [rising, partial curve, poor fit].
In the case of `COc1ccccc1N1CCN(C(=O)c2cnc(N3CCCCC3)c3ccccc23)CC1`, the half-maximal activity concentration (AC50) under setting [1] was 35.5 µM [falling, partial curve, poor fit].
Same read-out and setting: in the case of `O=C(O)c1ccc(COc2ccccc2/C=C2/NC(=O)N(c3cccc(Cl)c3)C2=O)cc1` it was 7.08 µM [rising, partial curve].
In the case of `CCn1cc(C(=O)N2CC(C)CC(C)C2)c(=O)c2cc(S(=O)(=O)N3CCOCC3)ccc21` (stereo not given), the half-maximal activity concentration (AC50) under setting [2] is 3.55 µM [falling, single point].
Take `Fc1cccc(Cl)c1Cn1nnc2c(N3CCC4(CC3)OCCO4)ncnc21`: the concentration at half-maximal activity (AC50) is 12.6 µM [rising, partial curve] under setting [1] and 12.6 µM [rising, partial curve] under setting [2].
As for `Cc1cc(C(=O)COc2ccccc2[N+](=O)[O-])c(C)n1-c1cccc(S(=O)(=O)N2CCOCC2)c1`, the half-maximal activity concentration (AC50) runs as follows: under setting [1], 3.55 µM [rising, full curve, poor fit]; under setting [2], 3.55 µM [rising, full curve].
For the molecule `COc1ccc(OC)c(C2C(C#N)=C(N)Oc3c2c(C)nn3-c2cccc(Cl)c2)c1` (stereo not given), the AC50 under setting [1] was 5.62 µM [rising, partial curve] and the AC50 under setting [2] is 14.1 µM [rising, single point].
Turning to `COc1ccc(CCNc2ccc(S(=O)(=O)N3CCCC3)cc2[N+](=O)[O-])cc1`, the AC50 reads like this: under setting [1], 31.6 µM [rising, single point]; under setting [2], 35.5 µM [rising, single point].
For `CCCCn1c(NC(=O)c2ccccc2)c(C#N)c2nc3ccccc3nc21`, the AC50 under setting [2] was 31.6 µM [rising, single point].
On to `c1ccc(-n2nc3c(ccc4cnnc43)[nH]2)cc1`, for which the concentration at half-maximal activity (AC50) under setting [2] was 0.178 µM [rising, full curve, poor fit].
Consider `COc1ccc(C2OC(=O)Cc3cc(OC)c(OC)cc32)cc1` (stereo not given), for which the AC50 under setting [2] was 1.26 µM [falling, partial curve].
As to `Cc1cc(/C=N/n2cnnc2)c(C)n1-c1cccc(Cl)c1`, the AC50 under setting [1] was 14.1 µM [rising, partial curve, poor fit] and the AC50 under setting [2] is 20 µM [rising, single point].
In the case of `COc1ccccc1N1CCN(Cc2ccc(OC)c3ccccc23)CC1`, the AC50 under setting [2] was 25.1 µM [rising, single point].
On to `Cc1ccc(Cl)cc1N1CCN(C(=O)CCCCCn2c(=O)[nH]c3ccccc3c2=O)CC1`, for which the half-maximal activity concentration (AC50) is 22.4 µM [falling, single point] under setting [1] and 17.8 µM [falling, single point] under setting [2].
Take `COc1ccc(N2CCc3c(C)nc4c(OC)cc(OC)cc4c32)cc1`: the AC50 under setting [2] is 14.1 µM [rising, partial curve, poor fit].
Regarding `O=c1c2ccccc2[nH]c(=S)n1CCC1=CCCCC1`, the concentration at half-maximal activity (AC50) under setting [2] was 6.31 µM [rising, full curve, poor fit].
As for `c1ccc(-c2nn3c(-c4ccccc4)nnc3s2)cc1`, under setting [2], the AC50 was 4.47 µM [rising, single point].
Still for that read-out and setting: in the case of `Cc1ccc(C(=O)COc2ccccc2-c2ccccc2)cc1` it was 31.6 µM [rising, single point].
For `C[n+]1ccc(/C=C/c2ccc(Br)cc2)cc1`, the AC50 under setting [1] was 39.8 µM [falling, partial curve, poor fit].
`O=[N+]([O-])c1cc(-c2nnc(Nc3ccc(O)cc3)c3ccccc23)ccc1N1CCOCC1`: the AC50 under setting [2] is 35.5 µM [rising, single point].
Still for that read-out and setting: in the case of `CN(Cc1ccccc1)c1ccc2nnc(-c3ccccc3)n2n1` it was 5.01 µM [rising, partial curve]; in that of `O=C(CCc1ccccc1)Nc1nnc(-c2ccc3c(c2)CCCC3)o1`, 35.5 µM [rising, single point].
Take `CC(=O)c1cccc(NC(=O)C(C)n2c(=O)cc(-c3ccccc3)c3c(C)nn(C)c32)c1` (stereo not given): under setting [2], the AC50 was 12.6 µM [falling, partial curve, poor fit].
In the case of `C=C(C)CNC(=S)N/N=C(\C)c1ccc(OC)cc1`, the AC50 under setting [2] was 10 µM [rising, partial curve, poor fit].
For the molecule `NS(=O)(=O)c1ccc(N/N=C/c2cn(-c3ccccc3)nc2-c2ccccc2)c([N+](=O)[O-])c1`, the AC50 under setting [1] is 7.94 µM [falling, partial curve, poor fit] and the concentration at half-maximal activity (AC50) under setting [2] was 7.08 µM [falling, full curve, poor fit].
On to `Cc1ccc(OCc2nnc(SCc3cc(=O)[nH]c4ccccc34)o2)cc1`, for which the concentration at half-maximal activity (AC50) under setting [2] was 35.5 µM [rising, single point].
For the molecule `COC(=O)N/N=C/c1cn(CC(C)COc2ccccc2)c2ccccc12` (stereo not given), the concentration at half-maximal activity (AC50) was 12.6 µM [rising, partial curve, poor fit] under setting [1] and 35.5 µM [rising, partial curve] under setting [2].
In the case of `Cc1nc2ccc(S(=O)(=O)NCC(=O)N3CCN(c4ccccn4)CC3)cc2s1`, the concentration at half-maximal activity (AC50) under setting [2] was 31.6 µM [rising, single point].
Turning to `N#Cc1sc2nc(N3CCCCC3)c3c(c2c1N)CCCC3`, the concentration at half-maximal activity (AC50) under setting [1] was 17.8 µM [falling, single point] and the half-maximal activity concentration (AC50) under setting [2] is 35.5 µM [falling, single point].
In the case of `O=C(Nc1cccc(C(=O)OCc2cc(=O)n3c4c(sc3n2)CCCC4)c1)c1cccc(Cl)c1`, the half-maximal activity concentration (AC50) under setting [1] was 0.178 µM [falling, full curve].
Regarding `Cc1ccc(Sc2ncccc2COC(=O)Nc2ccccc2)cc1`, the AC50 reads like this: under setting [1], 35.5 µM [rising, single point]; under setting [2], 35.5 µM [rising, single point].
